Assay results as given in the supplement of paper PMC7661543.
± gives the standard deviation of the averaged measurements. The effect of the compound repeats well; differences between the knockouts mostly do not.

Test system: MDA-MB-231
Experiment: relative cell number vs DMSO control (72 h) (% of DMSO); higher = less growth inhibition (more cells)
Method: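 QMAP-Seq: a pool of 5 breast cancer cell lines (ZR-75-1, SKBR3, HCC-38, MDA-MB-231, BT-20), each carrying 12 doxycycline-inducible Cas9 sgRNA perturbations (11 knockouts plus non-targeting sgNT), was treated with compounds for 72 h at four 10-fold doses (10 nM-10 uM or 1 nM-1 uM range). Barcodes were amplified and sequenced, and cell number was interpolated from 293T spike-in standard curves. The result is expressed as % of the median of DMSO wells. Two biological replicates.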

[1] = sgRNA knockout: sgATF3, 1000 nM
[2] = sgRNA knockout: sgATF3, 10000 nM
[3] = sgRNA knockout: sgATF4, 1000 nM
[4] = sgRNA knockout: sgATF4, 10000 nM
[5] = sgRNA knockout: sgATF6, 1000 nM
[6] = sgRNA knockout: sgATF6, 10000 nM
[7] = sgRNA knockout: sgATG7, 1000 nM
[8] = sgRNA knockout: sgATG7, 10000 nM
[9] = sgRNA knockout: sgERN1, 1000 nM
[10] = sgRNA knockout: sgERN1, 10000 nM
[11] = sgRNA knockout: sgHSF1, 1000 nM
[12] = sgRNA knockout: sgHSF1, 10000 nM
[13] = sgRNA knockout: sgHSF2, 1000 nM
[14] = sgRNA knockout: sgHSF2, 10000 nM
[15] = sgRNA knockout: sgKEAP1, 100 nM
[16] = sgRNA knockout: sgKEAP1, 1000 nM
[17] = sgRNA knockout: sgKEAP1, 10000 nM
[18] = sgRNA knockout: sgNFE2L2, 10 nM
[19] = sgRNA knockout: sgNFE2L2, 100 nM
[20] = sgRNA knockout: sgNFE2L2, 1000 nM
[21] = sgRNA knockout: sgNFE2L2, 10000 nM
[22] = sgRNA knockout: sgSLC35F2, 10 nM
[23] = sgRNA knockout: sgSLC35F2, 100 nM
[24] = sgRNA knockout: sgSLC35F2, 1000 nM
[25] = sgRNA knockout: sgSLC35F2, 10000 nM
[26] = sgRNA knockout: sgXBP1, 1000 nM
[27] = sgRNA knockout: sgXBP1, 10000 nM

## CNC(=O)c1cc(Oc2ccc(NC(=O)Nc3ccc(Cl)c(C(F)(F)F)c3)cc2)ccn1 [Sorafenib]
sgRNA knockout: sgATF3, 10 nM
  relative cell number: 76.8 ± 8.2
sgRNA knockout: sgATF3, 100 nM
  relative cell number: 127 ± 44
[1]
  relative cell number: 95.1 ± 31
[2]
  relative cell number: 36.6 ± 6.3
sgRNA knockout: sgATF4, 10 nM
  relative cell number: 110 ± 33
sgRNA knockout: sgATF4, 100 nM
  relative cell number: 86.3 ± 18
[3]
  relative cell number: 79.5 ± 36
[4]
  relative cell number: 33.5 ± 9.5
sgRNA knockout: sgATF6, 10 nM
  relative cell number: 112 ± 30
sgRNA knockout: sgATF6, 100 nM
  relative cell number: 99.5 ± 6.8
[5]
  relative cell number: 103 ± 30
[6]
  relative cell number: 30 ± 1.6
sgRNA knockout: sgATG7, 10 nM
  relative cell number: 114 ± 16
sgRNA knockout: sgATG7, 100 nM
  relative cell number: 93.2 ± 6.9
[7]
  relative cell number: 82.2 ± 24
[8]
  relative cell number: 40.5 ± 8.7
sgRNA knockout: sgERN1, 10 nM
  relative cell number: 83.9 ± 8.4
sgRNA knockout: sgERN1, 100 nM
  relative cell number: 97 ± 13
[9]
  relative cell number: 103 ± 27
[10]
  relative cell number: 39.3 ± 7.8
sgRNA knockout: sgHSF1, 10 nM
  relative cell number: 91.8 ± 9.1
sgRNA knockout: sgHSF1, 100 nM
  relative cell number: 102 ± 16
[11]
  relative cell number: 104 ± 34
[12]
  relative cell number: 41.8 ± 2.8
sgRNA knockout: sgHSF2, 10 nM
  relative cell number: 100 ± 13
sgRNA knockout: sgHSF2, 100 nM
  relative cell number: 95 ± 11
[13]
  relative cell number: 128 ± 23
[14]
  relative cell number: 30.9 ± 10
sgRNA knockout: sgKEAP1, 10 nM
  relative cell number: 102 ± 38
[15]
  relative cell number: 96.3 ± 6.3
[16]
  relative cell number: 94.5 ± 19
[17]
  relative cell number: 33.9 ± 0.3
[18]
  relative cell number: 95.1 ± 24
[19]
  relative cell number: 116 ± 25
[20]
  relative cell number: 87.1 ± 17
[21]
  relative cell number: 32.9 ± 2
[22]
  relative cell number: 110 ± 3
[23]
  relative cell number: 97 ± 26
[24]
  relative cell number: 103 ± 19
[25]
  relative cell number: 31.7 ± 6.1
sgRNA knockout: sgXBP1, 10 nM
  relative cell number: 90.5 ± 2.3
sgRNA knockout: sgXBP1, 100 nM
  relative cell number: 119 ± 2.2
[26]
  relative cell number: 95.9 ± 34
[27]
  relative cell number: 37.5 ± 9.3

## CC(C)(C)c1ccc(S(=O)(=O)NCc2ccc(C(=O)Nc3cccnc3)cc2)cc1 [STF31]
sgRNA knockout: sgATF3, 10 nM
  relative cell number: 101 ± 1.4
sgRNA knockout: sgATF3, 100 nM
  relative cell number: 91.7 ± 11
[1]
  relative cell number: 58.6 ± 16
[2]
  relative cell number: 23.03 ± 0.062
sgRNA knockout: sgATF4, 10 nM
  relative cell number: 106 ± 17
sgRNA knockout: sgATF4, 100 nM
  relative cell number: 107 ± 9.3
[3]
  relative cell number: 66.8 ± 23
[4]
  relative cell number: 39.9 ± 10
sgRNA knockout: sgATF6, 10 nM
  relative cell number: 128 ± 16
sgRNA knockout: sgATF6, 100 nM
  relative cell number: 86.2 ± 16
[5]
  relative cell number: 74.9 ± 1.9
[6]
  relative cell number: 39.1 ± 16
sgRNA knockout: sgATG7, 10 nM
  relative cell number: 111 ± 3.5
sgRNA knockout: sgATG7, 100 nM
  relative cell number: 87 ± 18
[7]
  relative cell number: 51.6 ± 4.9
[8]
  relative cell number: 31.2 ± 6.7
sgRNA knockout: sgERN1, 10 nM
  relative cell number: 103 ± 10
sgRNA knockout: sgERN1, 100 nM
  relative cell number: 81.5 ± 10
[9]
  relative cell number: 51.3 ± 13
[10]
  relative cell number: 32.4 ± 12
sgRNA knockout: sgHSF1, 10 nM
  relative cell number: 96.5 ± 12
sgRNA knockout: sgHSF1, 100 nM
  relative cell number: 89.3 ± 8.8
[11]
  relative cell number: 49.7 ± 4.5
[12]
  relative cell number: 31.1 ± 6.1
sgRNA knockout: sgHSF2, 10 nM
  relative cell number: 89 ± 6.2
sgRNA knockout: sgHSF2, 100 nM
  relative cell number: 83.9 ± 12
[13]
  relative cell number: 60.5 ± 12
[14]
  relative cell number: 34.9 ± 4.3
sgRNA knockout: sgKEAP1, 10 nM
  relative cell number: 89.1 ± 2.4
[15]
  relative cell number: 96.5 ± 38
[16]
  relative cell number: 99 ± 1.4
[17]
  relative cell number: 35.4 ± 3.5
[18]
  relative cell number: 101 ± 5.8
[19]
  relative cell number: 93.6 ± 20
[20]
  relative cell number: 58.3 ± 25
[21]
  relative cell number: 41.4 ± 9.4
[22]
  relative cell number: 111 ± 49
[23]
  relative cell number: 75.2 ± 19
[24]
  relative cell number: 46.3 ± 12
[25]
  relative cell number: 36.7 ± 8
sgRNA knockout: sgXBP1, 10 nM
  relative cell number: 107 ± 9
sgRNA knockout: sgXBP1, 100 nM
  relative cell number: 94.5 ± 15
[26]
  relative cell number: 71 ± 7.9
[27]
  relative cell number: 31.4 ± 1.7

## Cc1c(Cn2c(C)nc3c(C(=O)O)cc(N4CCOCC4)cc32)cccc1C(F)(F)F
sgRNA knockout: sgATF3, 10 nM
  relative cell number: 112 ± 18
sgRNA knockout: sgATF3, 100 nM
  relative cell number: 128 ± 5.2
[1]
  relative cell number: 116 ± 33
[2]
  relative cell number: 118 ± 23
sgRNA knockout: sgATF4, 10 nM
  relative cell number: 93.7 ± 46
sgRNA knockout: sgATF4, 100 nM
  relative cell number: 142 ± 59
[3]
  relative cell number: 84.4 ± 4.5
[4]
  relative cell number: 97.4 ± 7.6
sgRNA knockout: sgATF6, 10 nM
  relative cell number: 105 ± 17
sgRNA knockout: sgATF6, 100 nM
  relative cell number: 92 ± 39
[5]
  relative cell number: 103 ± 6.6
[6]
  relative cell number: 95 ± 1.1
sgRNA knockout: sgATG7, 10 nM
  relative cell number: 85.5 ± 2.9
sgRNA knockout: sgATG7, 100 nM
  relative cell number: 107 ± 3.1
[7]
  relative cell number: 94.1 ± 11
[8]
  relative cell number: 89.1 ± 6.4
sgRNA knockout: sgERN1, 10 nM
  relative cell number: 86.6 ± 9.5
sgRNA knockout: sgERN1, 100 nM
  relative cell number: 111 ± 8.5
[9]
  relative cell number: 94.1 ± 24
[10]
  relative cell number: 99.2 ± 7.8
sgRNA knockout: sgHSF1, 10 nM
  relative cell number: 96.5 ± 13
sgRNA knockout: sgHSF1, 100 nM
  relative cell number: 101 ± 4.9
[11]
  relative cell number: 119 ± 7
[12]
  relative cell number: 95.2 ± 17
sgRNA knockout: sgHSF2, 10 nM
  relative cell number: 87.7 ± 13
sgRNA knockout: sgHSF2, 100 nM
  relative cell number: 106 ± 2.6
[13]
  relative cell number: 123 ± 29
[14]
  relative cell number: 109 ± 18
sgRNA knockout: sgKEAP1, 10 nM
  relative cell number: 115 ± 9.5
[15]
  relative cell number: 116.4 ± 0.15
[16]
  relative cell number: 127 ± 5.4
[17]
  relative cell number: 95.6 ± 16
[18]
  relative cell number: 101 ± 15
[19]
  relative cell number: 96.8 ± 3.4
[20]
  relative cell number: 104 ± 30
[21]
  relative cell number: 108 ± 12
[22]
  relative cell number: 97.8 ± 36
[23]
  relative cell number: 92.6 ± 10
[24]
  relative cell number: 87.48 ± 0.44
[25]
  relative cell number: 96.2 ± 13
sgRNA knockout: sgXBP1, 10 nM
  relative cell number: 98.4 ± 10
sgRNA knockout: sgXBP1, 100 nM
  relative cell number: 101 ± 18
[26]
  relative cell number: 117 ± 11
[27]
  relative cell number: 94.8 ± 12
